The list shows a part of the results. The main result of the screen is listed elsewhere. These columns were measured beside it and carry no call. Compounds called inactive in the main read-out are mostly missing here. Potencies come from curve fits of mixed quality, noted in brackets.
Experiment: qHTS Assay for Lipid Storage Modulators in Drosophila S3 Cells;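 for cell number change: cells counted by Cell Tracker Red CMTPX staining in the red channel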
Settings: BODIPY lipid droplet fluorescence, 18-24 h; for cell number change: measured here: cell count max response, cells fed with added oleic acid
Summary of the method: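 Drosophila S3 cells got compounds at several concentrations plus oleic acid (400 uM solution). Laser-scanning cytometry with 488 nm excitation read lipid droplets at 500-530 nm and cells at 575-640 nm. Percent activity was relative to 20 uM Triacsin C.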

[1] = measured here: lipid fluorescence (Fed channel) AC50, cells fed with added oleic acid
[2] = measured here: cell number channel AC50, cells fed with added oleic acid

Row | Compound | cell number change | AC50 [1] | AC50 [2]
1 | O=C(Nc1cccc(C(F)(F)F)c1)Oc1ccccc1N1CCOCC1 | 7.87% | – | –
2 | COC(=O)c1sccc1NC(=O)Nc1cccc(F)c1 | 45.3% | – | –
3 | CCOc1ccc(N(CC(=O)N2CCN(Cc3ccccc3)CC2)S(C)(=O)=O)cc1 | 6.91% | 29.1 µM [rising, single point] | –
4 | COc1ccc(C(=O)c2c(C)c3ccccc3n2CC(O)CNC(C)C)cc1 (stereo unspecified) | -28% | 16.4 µM [falling, partial curve] | –
5 | CCN(CC)S(=O)(=O)c1cccc(NC(=O)CSc2nc3ccccc3[nH]2)c1 | 0.791% | – | 6.51 µM [rising, single point]
6 | CCc1ccc(OCCNc2cc(N3CCNC(C)C3)ccc2[N+](=O)[O-])cc1 (stereo unspecified) | -81.1% | – | 7.31 µM [falling, partial curve]
7 | CCCN(CCC)C(=S)Nc1cc(C(=O)OC)ccc1C(=O)OC | 23.8% | 0.259 µM [rising, partial curve] | –
8 | O=C(COc1ccccc1)N1CCc2ccccc21 | -9.01% | 0.103 µM [rising, full curve, poor fit] | –
9 | O=C(CC1CCCCC1)N1CCC(c2nc(-c3ccc(S(=O)(=O)N4CCCC4)cc3)no2)CC1 | -15.8% | 7.31 µM [falling, single point] | –
10 | COc1ccc2cc(C)c3nnc(SCc4cccnc4)n3c2c1 | 76.7% | 23.1 µM [rising, single point] | 20.6 µM [rising, single point]
11 | CC(C)OC(=O)CN1CCN(c2ccc(Cl)cc2)CC1 | -4.95% | 0.461 µM [falling, partial curve, poor fit] | –
12 | CCn1c(C)[n+](CCOCC[n+]2c(C)n(CC)c3cc(Cl)c(Cl)cc32)c2cc(Cl)c(Cl)cc21 | -5.99% | 0.731 µM [falling, full curve] | –
13 | CN(CC(=O)Nc1ccccc1Br)C(=O)Cn1[nH]c(=O)c2ccccc2c1=O | 8.78% | 23.1 µM [rising, single point] | –
14 | CSc1cccc(CNC(=O)C2CCC(=O)N(CC3CCCCC3)C2)c1 (stereo unspecified) | -18.8% | 0.731 µM [falling, single point] | –
15 | O=C(CSc1nnc(-c2ccc(Br)cc2)o1)Nc1cccc2ccccc12 | 65.9% | 0.731 µM [rising, partial curve, poor fit] | 29.1 µM [rising, single point]
16 | CCC(C)NC(=O)c1cc(S(=O)(=O)N2CCCCC2)c[nH]1 (stereo unspecified) | 0.299% | 6.51 µM [rising, partial curve, poor fit] | –
17 | COc1ccc(N2CCN(Cc3cc(=O)oc4ccc(Cl)cc34)CC2)cc1 | 9.5% | – | –
18 | Cc1c2c(n3c(nc4ccccc43)c1C#N)N(c1ccccc1)CC2 | 33.5% | 4.61 µM [falling, single point] | 1.84 µM [rising, full curve]
19 | COCNc1nc(OCC#N)nc(N(C)C)n1 | -1.35% | – | –
20 | O=C(O)c1cc(-c2ccco2)nn1-c1cccc(Cl)c1 | -21.2% | 0.00461 µM [falling, full curve, poor fit] | 0.00461 µM [falling, full curve, poor fit]

Row | Compound | cell number change | AC50 [1] | AC50 [2]
21 | O=C(CSc1nncn1-c1ccccc1)NCc1cccs1 | 7.76% | 18.4 µM [rising, single point] | –
22 | Cc1c(NS(=O)(=O)c2ccc3[nH]c(=O)[nH]c3c2)c(=O)n(-c2ccccc2)n1C | 0.602% | 29.1 µM [falling, single point] | –
23 | Cc1ccc(N2C(=O)N(CC(=O)Nc3cccc(Cl)c3)C(=O)C2C)cc1 (stereo unspecified) | 57% | – | 16.4 µM [rising, single point]
24 | Cc1n[nH]c(=O)c2c(NC(=O)COC(=O)Cc3c(F)cccc3Cl)oc(C)c12 | 56.2% | 0.58 µM [rising, partial curve, poor fit] | 0.366 µM [rising, full curve, poor fit]
25 | CN(C(=O)COC(=O)c1cccc(S(=O)(=O)N2CCCCC2)c1)C1CCS(=O)(=O)C1 (stereo unspecified) | 1.27% | 0.184 µM [falling, full curve, poor fit] | –
26 | Brc1ccccc1Cn1c(-c2cncs2)nc2ccccc21 | 14.1% | – | –
27 | CCCCn1c(=O)[nH]c(=O)c2c1nc(-c1ccc([N+](=O)[O-])cc1)n2CC | 13.1% | 0.58 µM [rising, single point] | –
28 | CCN(CC(=O)Nc1c(F)cccc1F)C(=O)c1ccc(S(=O)(=O)N2CCCCCC2)cc1 | -25% | – | –
29 | Cc1cccc(NC(=O)CSc2nnc(NC(=O)C3CC3)s2)c1C | -7.26% | – | –
30 | C/C(CC(=O)Nc1cccc(C(F)(F)F)c1)=N\NC(=O)c1cnccn1 | 6.09% | 6.51 µM [rising, single point] | –
31 | O=C1CCCCC1C(=O)c1cn(-c2ccc(Cl)c(Cl)c2)nn1 (stereo unspecified) | 16.2% | 2.06 µM [rising, partial curve, poor fit] | 2.06 µM [rising, partial curve, poor fit]
32 | Cc1cc2cc(CN(CCCN3CCOCC3)C(=O)NC3CCCCC3)c(=O)[nH]c2cc1C | 133% | 5.17 µM [rising, partial curve] | 3.26 µM [rising, partial curve]
33 | CS(=O)(=O)N(CC(=O)N1CCc2ccccc2C1)Cc1ccc(F)cc1 | – | 0.146 µM [falling, full curve] | –
34 | O=C(Nc1ccccc1)N(C1=NCCC1)c1ccccc1 | 27.3% | – | –
35 | CCCN(Cc1nnc(-c2ccccc2Cl)o1)C(=O)c1cc2ccccc2o1 | 106% | – | 5.17 µM [rising, partial curve]
36 | Cc1ccc(C(C(=O)NCc2ccccc2)N(Cc2ccco2)C(=O)c2snc(C(N)=O)c2N)o1 (stereo unspecified) | 12.8% | – | –
37 | CN(C)c1nc(N2CCN(c3ccc(F)cc3)CC2)c(C#N)c(=O)o1 | – | 0.58 µM [falling, single point] | –
38 | Cc1cccc(N2CCN(C(=O)c3ccc(CS(=O)(=O)c4ccccc4C)o3)CC2C)c1 (stereo unspecified) | -32% | 16.4 µM [falling, partial curve] | 8.2 µM [falling, partial curve]
39 | O=C(c1cc(COc2cccc3cnccc23)on1)N1CCCC(CCCO)C1 (stereo unspecified) | 2.37% | 1.03 µM [falling, full curve] | 1.64 µM [falling, partial curve]
40 | C=CCn1cccc(C(=O)Nc2ccc(SC)cc2)c1=O | – | 1.3 µM [falling, full curve] | –

Row | Compound | cell number change | AC50 [1] | AC50 [2]
41 | N#Cc1ccc(CN2CCN(C(=O)c3ccc(S(=O)(=O)NCc4ccco4)cc3)CC2)cc1 | -15.2% | 0.164 µM [falling, full curve, poor fit] | –
42 | O=C(CCc1ccc(S(=O)(=O)N2CCOCC2)cc1)NCCCN1CCCC1=O | -4.46% | – | –
43 | COc1ccc(NC(=O)COc2ccc(C(=O)c3ccc(F)cc3)cc2)cc1S(N)(=O)=O | 5.42% | 0.146 µM [rising, single point] | –
44 | Cc1ccc(NC(=O)CSCC(=O)O)c(C)c1 | -47.6% | – | 29.1 µM [falling, single point]
45 | CN(C(=O)CSc1nc2ccccc2c(=O)n1-c1ccc(F)cc1)C1CCS(=O)(=O)C1 (stereo unspecified) | -6.26% | 6.51 µM [falling, full curve] | –
46 | CCCCSc1nnc(CCCCCNC(=O)OC(C)(C)C)o1 | 4.37% | – | 0.517 µM [falling, full curve, poor fit]
47 | CN(/C=C/C(=C/C=[N+](C)c1ccccc1)OCCCS(=O)(=O)[O-])c1ccccc1 | -47.9% | 4.11 µM [falling, full curve] | 4.11 µM [falling, full curve]
48 | Cc1ccc(N(C(=O)CNC(=O)c2cccs2)C(C(=O)NC2CCCC2)c2ccncc2)cc1 (stereo unspecified) | -21.8% | 6.51 µM [rising, partial curve] | –
49 | CC1Cc2cc(C(=O)O)ccc2O1 (stereo unspecified) | -9.31% | 16.4 µM [rising, single point] | –
50 | Cc1ccc(C)c(OCC(O)CN2CCC(C)CC2)c1C (stereo unspecified) | 7.22% | 0.259 µM [rising, partial curve, poor fit] | –
51 | Cc1ccc(/C=N/NC(=O)C2CC(=O)N(c3ccccc3)C2)s1 (stereo unspecified) | 102% | 29.1 µM [rising, single point] | 11.6 µM [rising, partial curve]
52 | CSc1nc(C)c(CCOCc2ccccc2)c(=O)[nH]1 | -43.5% | 25.9 µM [falling, partial curve] | –
53 | O=C(Cn1c(=O)oc2cc(S(=O)(=O)N3CCCC3)ccc21)N1CCc2ccccc2C1 | 28.3% | 29.1 µM [rising, single point] | –
54 | O=C(O)c1ccc(N2C(=O)CC(Cc3ccccc3)C2=O)cc1 (stereo unspecified) | -17.9% | 0.13 µM [falling, full curve] | –
55 | O=C(OCc1nnc(-c2ccc(Br)cc2)o1)c1cncc(Br)c1 | 35.3% | 6.31 µM [falling, single point] | 35.5 µM [rising, single point]
56 | c1ccc(OCCN2CCOCC2)cc1 | 2.46% | – | –
57 | CCc1ccccc1OCC(=O)Nc1ccc(F)c(S(=O)(=O)N2CCOCC2)c1 | – | 0.103 µM [falling, full curve, poor fit] | –
58 | COc1ccc(NC(=O)c2ccc3ncsc3c2)c2ccccc12 | 16.9% | 1.64 µM [rising, full curve, poor fit] | –
59 | O=C(Cc1csc(N2CCOCC2)n1)N/N=C/c1ccc(F)cc1 | 42.2% | 2.31 µM [rising, partial curve] | 4.61 µM [rising, full curve]

From entry 56 to 57, as listed above:
Row | Compound | cell number change | AC50 [1] | AC50 [2]
56 | c1ccc(OCCN2CCOCC2)cc1 | 2.46% | – | –
57 | CCc1ccccc1OCC(=O)Nc1ccc(F)c(S(=O)(=O)N2CCOCC2)c1 | – | 0.103 µM [falling, full curve, poor fit] | –

Source: PubChem BioAssay AID2685 (National Center for Advancing Translational Sciences (NCATS), 2010)
